The record followed here is patent US9856290B2 (SUSSEX RESEARCH LABORATORIES INC., priority 2013, dated 2018).

For part of these data: HELM strings list residues between dots; [ac] is acetyl, [am] amide, other brackets name non-standard units. A value given as a limit tells only on which side of the number the result lay.

Data set [1] in a line: general procedure: Fmoc solid-phase peptide synthesis; H-L-Ser(t-Bu)-2-Cl-Trityl resin; H-L-Ser(sugar)-2-Cl-Trityl resin; HBTU, DIPEA. Particulars: for final HPLC purity: analytical RP-HPLC.
Data set [2] in a line: general procedure: Fmoc solid-phase peptide synthesis; H-L-Ser(Ac7-β-Mal)-2-Cl-Trityl resin; HBTU, DIPEA. Particulars: whole synthesis.
A short description of data set [3]: general procedure: Fmoc solid-phase peptide synthesis; H-L-Ser(t-Bu)-2-Cl-Trityl resin; HBTU, DIPEA. As to conditions: whole synthesis, scale 0.1 mmol.
Data set [4] can be described thus: general procedure: Fmoc solid-phase peptide synthesis; H-L-Ser(Ac4-β-Gal)-2-Cl-Trityl resin; HBTU, DIPEA. As to conditions: whole synthesis.
Data set [5] can be described thus: general procedure: Fmoc solid-phase peptide synthesis; H-L-Ser(Ac4-β-Glc)-2-Cl-Trityl resin; HBTU, DIPEA. As to conditions: whole synthesis.
The mark [6] stands for this setting: whole synthesis, scale of the general procedure 0.1 mmol, run 1.
Setting [7] is: whole synthesis, scale of the general procedure 0.1 mmol, run 2.
Where [8] appears, read: whole synthesis, scale of the general procedure 0.1 mmol.
The mark [9] stands for this setting: whole synthesis, scale 0.1 mmol.

For the substance “PEPTIDE1{[Pal].K.T.T.K.[Ser(Ac7-b-Mal)]}$$$$V2.0”, the “final HPLC purity” value in data set [1] (setting [6]) is 97.8%; in data set [1] (setting [7]) it was above 95%. In addition, the isolated yield in data set [1] (setting [8]) came out at 24%. For the same substance, the isolated mass in data set [2] is given as 102 mg.

Take “PEPTIDE1{[Pal].K.[Thr(Ac7-b-Mal)].T.K.S}$$$$V2.0”: in data set [3], the isolated mass was 90 mg. Besides, the figures for the “final HPLC purity” value in data set [1] (setting [6]) and in data set [1] (setting [7]) were 99.1% and above 97%, respectively. This substance also gave an isolated yield in data set [1] (setting [9]) of 63% yield.

In data set [3], “Pal-KT(Ac4-β-Glc)TKS-OH (KTTKS; N-palmitoyl; Thr2 O-Ac4-β-Glc; MOD_RES (1)..(1) having an N-terminal palmitoyl; CARBOHYD (2)..(2) glycosylated with per-acetylated beta-glucose; listed as Homo sapiens)” showed an isolated mass of 70 mg and an isolated yield of 62%. Moreover, the “final HPLC purity” value in data set [1] (setting [6]) is recorded as 95.6%. In addition, the “final HPLC purity” value in data set [1] (setting [7]) was above 95%.

Turning to “Pal-KT(β-Glc)TKS-OH (KTTKS; N-palmitoyl; Thr2 O-β-Glc; MOD_RES (1)..(1) having an N-terminal palmitoyl; CARBOHYD (2)..(2) glycosylated with beta-glucose; listed as Homo sapiens)”, in data set [1] (late stage modification step), the “final HPLC purity” value amounted to 99%.

In turn, “Pal-KTT(Ac7-β-Mal)KS-OH (KTTKS; N-palmitoyl; glycosylated Thr; MOD_RES (1)..(1) having an N-terminal palmitoyl; CARBOHYD (3)..(3) glycosylated with peracetylated beta-maltose; listed as Homo sapiens)” showed an isolated mass in data set [3] of 26 mg. For the same substance, the “final HPLC purity” value in data set [1] (setting [6]) is reported as 98.5%; in data set [1] (setting [7]) it was above 95%. The substance also gave an isolated yield in data set [1] (setting [9]) of 18% yield.

As to “Pal-KTTKS(Ac4-β-Gal)-OH (N-palmitoyl; Ser5 O-Ac4-β-Gal; MOD_RES (1)..(1) having an N-terminal palmitoyl; CARBOHYD (5)..(5) glycosylated with per-acetylated beta-galactose; listed as Homo sapiens)”, the “final HPLC purity” value in data set [1] (setting [6]) is recorded as 99.6%; in data set [1] (setting [7]), above 100%. In data set [1] (setting [8]), this substance displayed an isolated yield of 41%. This substance also came in with an isolated mass in data set [4] of 140 mg.

On to “Pal-KTTKS(Ac4-β-Glc)-OH (N-palmitoyl; Ser5 O-Ac4-β-Glc; MOD_RES (1)..(1) having an N-terminal palmitoyl; CARBOHYD (5)..(5) glycosylated with per-acetylated beta-glucose; listed as Homo sapiens)”, for which, in data set [1] (setting [8]), the “final HPLC purity” value was 99.6% and the isolated yield is 40%. This substance registered an isolated mass in data set [5] of 136 mg.
